Reference: patent publication US12419900B2, “Induction of synthetic lethality with epigenetic therapy” (The Johns Hopkins University, priority 2017, dated 2025)
Some entries share one result that the patent states for a list of compounds.

System: DU145 xenograft tumor
Test: In vivo xenograft study of DU145, decitabine and alisertib
Set-up: species or system nude mice
Details: single agents: decitabine only, high- and low-dose alisertib only
Procedure: Using in vivo xenograft studies of the DU145 prostate cancer cell line, the effect was explored of the treatment of two dose levels of alisertib alone or in combination with decitabine using two different treatment time schedules over a period of seven weeks. First, nude mice were inoculated with DU145 cells that were allowed to incubate for 10-12 days to establish xenograft tumor. The inoculated mice were then treated concomitantly with both a high dose and a low dose of alisertib and decitabine in the first two weeks or primed with decitabine alone for two weeks followed by alisertib alone in the first cycle. The dose of decitabine was held constant at 0.75 mg/kg and given with either low-dose (15 mg/kg) or high-dose (25 mg/kg) alisertib, as indicated in FIG. 4. The cumulative number of doses of decitabine and alisertib was the same in all combination treatment arms in both schedules.

Nc1ncn([C@H]2C[C@H](O)[C@@H](CO)O2)c(=O)n1 [decitabine, 5-aza-2′-deoxycytidine]
mean survival post-inoculation: less than 40 days
